Reference: PMC4941268
These are yes or no findings as the source states them, for the method shown. Binding seen in cells or lysates may run through a third protein. Binding can be weak; no strength is given. Tags and fused reporters may be left off the sequences shown.

Sequences of proteins named here, by UniProt entry; tags and fusion partners are left off. A change or cut given only in a name is not applied to a line headed by its entry.
UniProt P02545: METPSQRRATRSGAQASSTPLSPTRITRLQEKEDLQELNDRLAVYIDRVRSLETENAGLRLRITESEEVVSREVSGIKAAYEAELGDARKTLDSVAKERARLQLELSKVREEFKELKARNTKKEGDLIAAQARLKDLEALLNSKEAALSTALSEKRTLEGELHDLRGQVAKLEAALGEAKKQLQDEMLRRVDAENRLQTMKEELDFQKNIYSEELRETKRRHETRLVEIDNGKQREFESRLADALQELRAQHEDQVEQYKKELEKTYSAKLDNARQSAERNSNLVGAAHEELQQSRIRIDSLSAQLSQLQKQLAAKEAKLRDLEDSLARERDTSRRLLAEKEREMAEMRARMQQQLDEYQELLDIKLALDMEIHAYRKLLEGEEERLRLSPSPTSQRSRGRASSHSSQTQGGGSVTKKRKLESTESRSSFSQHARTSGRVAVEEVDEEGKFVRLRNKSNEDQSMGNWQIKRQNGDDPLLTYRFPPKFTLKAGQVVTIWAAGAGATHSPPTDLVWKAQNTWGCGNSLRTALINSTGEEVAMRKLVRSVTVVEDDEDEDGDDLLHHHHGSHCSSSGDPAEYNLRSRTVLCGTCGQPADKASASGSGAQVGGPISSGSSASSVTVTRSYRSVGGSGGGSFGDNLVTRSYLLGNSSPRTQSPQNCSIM

Molecular target: FLAG-tagged progerin (FLAG-LA-Δ50) (UniProt P02545)
Experiment: co-IP; anti-FLAG immunoprecipitation from cotransfected HEK293 cells (FLAG-lamin A constructs with GFP-BAF constructs), 24 h after transfection; lysis in 50 mM TRIS-HCl pH 8.0, 150 mM NaCl, 1% NP40, 0.1% SDS; antibody overnight at 4°C, protein A/G; blots for FLAG and GFP

B1: GFP-tagged wild type BAF (BAF-WT) (protein, UniProt O75531 1-89)
chain: MTTSQKHRDFVAEPMGEKPVGSLAGIGEVLGKKLEERGFDKAYVVLGQFLVLKKDEDLFREWLKDTCGANAKQSRDCFGCLREWCDAFL
  binding: binds

B2: GFP-tagged BAF mutant BAF-G47E (protein, UniProt O75531 1-89)
chain: MTTSQKHRDFVAEPMGEKPVGSLAGIGEVLGKKLEERGFDKAYVVLEQFLVLKKDEDLFREWLKDTCGANAKQSRDCFGCLREWCDAFL
  binding: no binding
